Common to all, as to assay: co-IP
Assay [1] has as its target OPTN_(1-577)-GFP (human) (UniProt Q96CV9).
Assay [2] has the same target. The source holds these as a separate data set.
Assay [3] has as its target OPTN_(217-577)-GFP (human) (UniProt Q96CV9).
A further assay concerns the target OPTN_(D474N)-GFP (human) (UniProt Q96CV9).
Assay [4] concerns the target OPTN_(Δ474-479)-GFP (human) (UniProt Q96CV9).
Assay [5] concerns the target PEX14_(1-377)-GFP (human) (UniProt O75381).

Sequences of proteins named here, by UniProt entry; tags and fusion partners are left off. A change or cut given only in a name is not applied to a line headed by its entry. A line that says so, or that is headed by a name, gives the form on record, which may keep a tag or linker. Residues count along the entry.
UniProt Q96CV9: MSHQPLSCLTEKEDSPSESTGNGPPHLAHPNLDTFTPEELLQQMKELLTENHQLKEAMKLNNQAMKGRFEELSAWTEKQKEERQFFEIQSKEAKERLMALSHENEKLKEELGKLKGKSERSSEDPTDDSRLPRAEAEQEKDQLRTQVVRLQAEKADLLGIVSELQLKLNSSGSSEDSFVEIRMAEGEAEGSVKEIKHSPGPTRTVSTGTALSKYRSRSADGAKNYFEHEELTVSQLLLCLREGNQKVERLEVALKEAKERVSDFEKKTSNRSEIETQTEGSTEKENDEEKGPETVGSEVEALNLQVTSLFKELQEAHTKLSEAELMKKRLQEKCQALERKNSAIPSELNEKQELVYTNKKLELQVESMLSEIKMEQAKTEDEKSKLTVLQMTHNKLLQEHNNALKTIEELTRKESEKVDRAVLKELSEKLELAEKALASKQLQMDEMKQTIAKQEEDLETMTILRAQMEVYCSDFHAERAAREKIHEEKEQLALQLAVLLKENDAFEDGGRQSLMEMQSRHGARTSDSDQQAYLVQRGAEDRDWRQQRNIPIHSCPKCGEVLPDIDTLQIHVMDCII
OPTN_(217-577)-GFP: residues 217-577 of Q96CV9
OPTN_(Δ474-479)-GFP (Q96CV9, form named): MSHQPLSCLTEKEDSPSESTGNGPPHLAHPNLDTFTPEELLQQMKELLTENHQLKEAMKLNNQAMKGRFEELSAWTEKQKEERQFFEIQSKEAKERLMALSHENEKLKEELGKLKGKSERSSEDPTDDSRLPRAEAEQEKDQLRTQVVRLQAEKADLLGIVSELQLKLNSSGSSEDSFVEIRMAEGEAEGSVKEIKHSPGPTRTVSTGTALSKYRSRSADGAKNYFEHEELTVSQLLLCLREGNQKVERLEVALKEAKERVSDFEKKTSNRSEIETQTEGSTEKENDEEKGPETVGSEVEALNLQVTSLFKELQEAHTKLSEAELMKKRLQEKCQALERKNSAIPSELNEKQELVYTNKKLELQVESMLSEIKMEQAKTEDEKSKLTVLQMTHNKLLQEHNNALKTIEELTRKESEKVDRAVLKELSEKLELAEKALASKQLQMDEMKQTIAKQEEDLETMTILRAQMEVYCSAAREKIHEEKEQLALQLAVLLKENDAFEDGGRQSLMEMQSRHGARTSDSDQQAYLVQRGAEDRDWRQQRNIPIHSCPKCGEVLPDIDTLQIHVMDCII
UniProt O75381: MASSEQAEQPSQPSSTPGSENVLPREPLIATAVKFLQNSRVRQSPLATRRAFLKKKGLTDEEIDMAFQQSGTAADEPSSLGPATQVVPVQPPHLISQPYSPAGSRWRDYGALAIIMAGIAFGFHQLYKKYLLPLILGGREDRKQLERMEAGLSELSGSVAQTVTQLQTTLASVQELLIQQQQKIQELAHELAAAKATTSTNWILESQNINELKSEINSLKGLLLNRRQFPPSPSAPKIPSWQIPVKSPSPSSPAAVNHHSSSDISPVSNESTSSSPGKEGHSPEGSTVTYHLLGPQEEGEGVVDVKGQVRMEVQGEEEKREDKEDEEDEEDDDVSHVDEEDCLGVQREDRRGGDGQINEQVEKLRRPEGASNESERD

Where two headings read alike, the source gives them in different places. Results are given in words; binding and its absence hold for the method and conditions named. In cells and extracts the contact can be indirect. Some results given as binding are weak or reduced against the parent protein; the word gives no strength.

Regarding “endogenous PEX14 (from UniProt O75381 1-377)”, in the assay with OPTN_(1-577)-GFP (human) [1], the binding result is on record as “binds”.

For the substance “non-tagged HsPEX14 (from UniProt O75381 1-377)”, the binding entry (in the assay with OPTN_(1-577)-GFP (human) [1]; in the assay with OPTN_(1-577)-GFP (human) [2]; in assay [3]; with OPTN_(D474N)-GFP (human); in assay [4]) was “binds” each time.

As to “non-tagged OPTN_(1-577) (from UniProt Q96CV9 1-577)”, in assay [5], the binding entry is on record as “binds”.

Source of the values: paper doi:10.1101/2024.05.31.596776.
